From US20230227561A1
Results are given in words; binding and its absence hold for the method and conditions named. Some binding calls cover weakened binding; strength is not graded here.

B1: anti-canine CD16 antibody fragment alone (protein)
VL: MEQILLTQSPAIMSASPGEKVTMTCSASSSVGYMHWYQQKPGSSPKPWIYDTSDLASGFPARFSGSRSGTSYSLIISSMEAEDAATYYCHQRSFYPYTFGGGTKLEIK
VH: EVQLQQSGAELVRSGASVKLSCTASGFNIKDYYMHWVKQRPEQGLEWIGWLDPENGDTVYAPKFQGRATMTADTSSNTAYLHLSSLTSEDTAVYYCNALVYSLLGQDYWGQGTTLTVSS
modifications: FITC-labelled in the PBMC assay (sites not given)
B2: anti-canine CD16A mAb (clone 4A5) (antibody, IgG1)
VH: EVQLQQSGAELVRSGASVKLSCTASGFNIKDYYMHWVKQRPEQGLEWIGWLDPENGDTVYAPKFQGRATMTADTSSNTAYLHLSSLTSEDTAVYYCNALVYSLLGQDYWGQGTTLTVSSAKTTPPSVYPLAPGSAAQTNSMVTLGCLVKGYFPEPVTVTWNSGSLSSGVHTFPAVLQSDLYTLSSSVTVPSS
VL: QILLTQSPAIMSASPGEKVTMTCSASSSVGYMHWYQQKPGSSPKPWIYDTSDLASGFPARFSGSRSGTSYSLIISSMEAEDAATYYCHQRSFYPYTFGGGTKLEIKRADAAPTVSIFPPSSEQLTSGGASVVCFLNNFYPKDINVKWKIDGSERQNGVLNSWTDQDSKDSTYSMSSTLTLTK

What was measured:
[1] = biological target: T1, canine CD16A on dog peripheral blood leukocytes / PBMC (canine) (UniProt E2RP87); experiment: flow cytometry on dog PBMC
T1 sequence: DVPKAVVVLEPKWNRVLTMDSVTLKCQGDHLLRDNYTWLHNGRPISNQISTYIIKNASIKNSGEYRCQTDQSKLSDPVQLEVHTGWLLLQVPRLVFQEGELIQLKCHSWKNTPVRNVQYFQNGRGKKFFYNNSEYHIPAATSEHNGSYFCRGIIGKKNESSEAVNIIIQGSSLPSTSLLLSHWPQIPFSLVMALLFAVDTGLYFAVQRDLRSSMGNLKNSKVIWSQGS

[2] = biological target: T2, recombinant soluble canine CD16A (canine) (UniProt E2RP87); experiment: Western blot, mAb at 5 ug/ml
T2 sequence: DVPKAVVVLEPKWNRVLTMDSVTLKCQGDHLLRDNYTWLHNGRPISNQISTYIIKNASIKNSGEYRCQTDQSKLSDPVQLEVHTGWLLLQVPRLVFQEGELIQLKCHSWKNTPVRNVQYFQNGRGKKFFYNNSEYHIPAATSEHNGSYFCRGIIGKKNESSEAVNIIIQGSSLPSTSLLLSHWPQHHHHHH

Binder | binding [1] | binding [2]
B1 | binds | 
B2 |  | binds
